{"source": "patent US7365160B2", "about": "“Mutated constitutively active nuclear orphan receptor” (The United States of America as represented by the …, priority 2002, dated 2008)", "key": {"mCAR L352A": {"biological_target": "T1, mCAR L352A (Mus musculus, UniProt O35627, L352A)", "T1 construct": "mCAR and hCAR expression vectors were constructed by cloning an entire mCAR; expressed in transfected cells; host or cells: HepG2", "T1 sequence (O35627 1-358 L352A)": "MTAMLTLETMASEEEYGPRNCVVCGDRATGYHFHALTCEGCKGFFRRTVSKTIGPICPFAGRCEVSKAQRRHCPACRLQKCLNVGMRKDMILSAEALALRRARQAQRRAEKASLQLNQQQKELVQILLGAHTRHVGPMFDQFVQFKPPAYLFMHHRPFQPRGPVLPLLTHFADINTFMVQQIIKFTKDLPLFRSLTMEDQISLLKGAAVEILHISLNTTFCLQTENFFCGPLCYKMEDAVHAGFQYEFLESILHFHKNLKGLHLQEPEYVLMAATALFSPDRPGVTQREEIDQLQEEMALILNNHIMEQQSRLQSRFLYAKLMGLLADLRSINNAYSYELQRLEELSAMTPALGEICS", "test": "luciferase reporter gene activation assay (PBREM) in HepG2 cells, mCAR L352A mutant", "format": "cell-based", "details": "only in the presence of exogenous SRC-1", "excerpt": "To examine the role of Leu352 in mCAR activity, site-directed mutagenesis was used as described in EXAMPLES 2 and 6."}, "mCART350M": {"biological_target": "T2, mCART350M (Mus musculus, UniProt O35627, T350M)", "T2 construct": "mCAR and hCAR expression vectors were constructed by cloning an entire mCAR; expressed in transfected cells; host or cells: HepG2", "T2 sequence (O35627 1-358 T350M)": "T1 sequence (O35627 1-358 L352A) with T350M, A352L", "test": "luciferase reporter assay in HepG2 cells, mutant mCART350M", "format": "cell-based", "details": "progesterone 10 μM, estradiol 0.1-10 μM"}, "[1]": {"tested_on": "chimeric receptors hmm and hhm", "test": "luciferase reporter assay in HepG2 cells, chimeric receptors with mouse LBD", "format": "cell-based, mouse/human", "details": "hCAR with LBD replaced by mLBD (hmm and hhm)"}, "mCAR": {"biological_target": "T3, mCAR (Mus musculus, UniProt O35627)", "T3 construct": "mCAR and hCAR expression vectors were constructed by cloning an entire mCAR; expressed in transfected cells; host or cells: HepG2", "T3 sequence (O35627 1-358)": "T1 sequence (O35627 1-358 L352A) with A352L", "test": "cell-based transfection assay, (NR1)5-tk-luciferase reporter in HepG2 cells, wild-type mCAR", "excerpt": "mCAR and hCAR expression vectors were constructed by cloning an entire mCAR (GenBank Accession No: AF009327, deposited on Jul. 22, 1997; SEQ ID NO: 15) or hCAR (GenBank Accession No: Z30425, deposited on Mar. 8, 1994; SEQ ID NO: 17) coding sequence into BamHI and XhoI sites of pCR3 plasmid as described previously (Sueyoshi et al., J Biol Chem 274:6043-6, 1999). Polymerase chain reaction (PCR) was used to amplify the desired hCAR or mCAR fragment from the plasmid. The amplified fragments used for the chimeras were nucleotides encoding amino acids: 1 to 86 of mCAR and 77 to 348 of hCAR (mhh), 1 to 116 of mCAR and 107 to 348 of hCAR (mmh), 1 to 76 of hCAR and 87 to 358 of mCAR (hmm), 1 to 106 of hCAR and 117 to 358 of mCAR (hhm). These fragments were PCR amplified using pfu polymerase and enzymatically phosphorylated primers. The amplified fragments were ligated, and a second PCR amplification was performed on the ligated DNA with the primers for 5′ and 3′ end of the chimeric DNA. The resulting second PCR products were cloned into a pCR3 vector (Invitrogen) with newly created BamHI and XhoI sites at the 5′ and the 3′ ends, respectively. […]"}}, "note": "Where a chain is given by its changes, count along the chain named. For at least one compound, name, drawing or mass did not settle the structure.", "data": [{"smiles": "C[C@]12CC[C@@H]3c4ccc(O)cc4CC[C@H]3[C@@H]1CC[C@@H]2O", "note": "[E2, estradiol]", "values": [{"measurement": "activation of L352A mutant", "setting": "mCAR L352A", "result": "activated"}, {"measurement": "activation in the presence of progesterone", "setting": "mCART350M", "result": "could not be activated"}, {"measurement": "hormone responsiveness", "setting": "[1]", "result": "acquired this responsiveness"}, {"measurement": "re-activation of progesterone-repressed mCAR activity", "setting": "mCAR; HepG2 cells", "result": "re-activated"}, {"measurement": "activation in the presence of progesterone", "setting": "mCAR; progesterone 10 μM, estradiol 0.1-10 μM", "result": "fully activated"}]}]}
